Experimental data: PubChem BioAssay AID1508588 (Peter MacCallum Cancer Centre, 2020)

Purpose: 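Genome-wide search for knock-downs that heighten vemurafenib action in melanoma cells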 (primary screen)
Cell system: human WM266.4 melanoma cells (BRAF V600 mutant)
Reagent: siRNA pool against human genes, 40 nM
Duration: 96 h from transfection to read-out
Conditions: vemurafenib 300 nM (about IC25), added 48 h after transfection, for 48 h; comparison arm got DMSO vehicle only
Read-out: 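Cell gain (DAPI nuclei at end minus before drug, mean of two replicates) and medium lactate by absorbance per cell, both as ratio to non-targeting siRNA, also grouped into fold-change classes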
Reading the numbers: cell gain with vemurafenib: higher = more cell gain than with non-targeting siRNA; lactate per cell with vemurafenib: higher = more lactate made per cell
Call rule: 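a knock-down counts as enhancing when its fold-change classes with vehicle and with vemurafenib, taken together, show a stronger drug effect on cell gain or lactate per cell; exact class pairs not stated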
Calls: active = enhances vemurafenib effect; inactive = no enhancement seen
The deposit covers about 18,000 reagents; this is an unselected part. Of all reagents, 790 (4.4%) are marked active. 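Calls rest on a combination of fold-change classes in drug and vehicle arms, not all shown here.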 No sequences are given here.

EIF2B1 (GeneID 1967) showed cell gain with vemurafenib 0.41; lactate per cell with vemurafenib 0.2; inactive.
Against SNAPC3 (GeneID 6619) the deposit lists cell gain with vemurafenib 0.66; lactate per cell with vemurafenib 0.74; inactive.
For ADRA2C (GeneID 152), the entry reads cell gain with vemurafenib 0.44; lactate per cell with vemurafenib 0.8; inactive.
TACC3 (GeneID 10460) scored cell gain with vemurafenib 1.18; lactate per cell with vemurafenib 0.46; inactive.
Depletion of H2BC10 (GeneID 8346) came out at: cell gain with vemurafenib 0.2; lactate per cell with vemurafenib 1.84; inactive.
For FAM91A1 (GeneID 157769) the deposit lists cell gain with vemurafenib 0.84; lactate per cell with vemurafenib 0.92; inactive.
ALK (GeneID 238) scored cell gain with vemurafenib 0.09; lactate per cell with vemurafenib 1.12; active.
Against ATP12A (GeneID 479), the entry reads cell gain with vemurafenib 1; lactate per cell with vemurafenib 0.95; inactive.
MAP1S (GeneID 55201) gave cell gain with vemurafenib 0.63; lactate per cell with vemurafenib 0.97; inactive.
Against STIM1 (GeneID 6786), the values are cell gain with vemurafenib 0.62; lactate per cell with vemurafenib 0.94; inactive.
For AMN (GeneID 81693) the deposit lists cell gain with vemurafenib 0.81; lactate per cell with vemurafenib 1.09; inactive.
For TPRX1 (GeneID 284355), the entry reads cell gain with vemurafenib 0.71; lactate per cell with vemurafenib 0.88; inactive.
R3HDM4 (GeneID 91300) showed cell gain with vemurafenib 0.24; lactate per cell with vemurafenib 2.6; inactive.
For SGTA (GeneID 6449), the entry reads cell gain with vemurafenib 0.15; lactate per cell with vemurafenib 0.16; active.
After knock-down of CANX (GeneID 821), the record shows cell gain with vemurafenib -0.17; lactate per cell with vemurafenib -0.11; active.
For IQCC (GeneID 55721) the deposit lists cell gain with vemurafenib 0.3; lactate per cell with vemurafenib 1.06; inactive.
For PHOX2B (GeneID 8929), the entry reads cell gain with vemurafenib 1.12; lactate per cell with vemurafenib 0.57; inactive.
ANO5 (GeneID 203859) scored cell gain with vemurafenib 0.86; lactate per cell with vemurafenib 0.68; inactive.
Against MMP1 (GeneID 4312), the values are cell gain with vemurafenib 0.07; lactate per cell with vemurafenib 1.52; inactive.
Silencing of RGMB (GeneID 285704) came out at: cell gain with vemurafenib 0.54; lactate per cell with vemurafenib 0.7; active.
Against CTU1 (GeneID 90353), the entry reads cell gain with vemurafenib 0.33; lactate per cell with vemurafenib 0.86; inactive.
With knock-down of PSMD12 (GeneID 5718) the results were cell gain with vemurafenib -0.04; lactate per cell with vemurafenib 2.67; inactive.
After knock-down of LMCD1 (GeneID 29995), the screen gave cell gain with vemurafenib 0.72; lactate per cell with vemurafenib 0.48; inactive.
LHX2 (GeneID 9355) gave cell gain with vemurafenib 0.89; lactate per cell with vemurafenib 1.19; inactive.
For TLE6 (GeneID 79816), the values are cell gain with vemurafenib 0.19; lactate per cell with vemurafenib 1.17; inactive.
Silencing of CA1 (GeneID 759) resulted in: cell gain with vemurafenib 0.95; lactate per cell with vemurafenib 0.4; inactive.
After knock-down of OS9 (GeneID 10956), the record shows cell gain with vemurafenib 1.15; lactate per cell with vemurafenib 0.98; inactive.
KRT23 (GeneID 25984) gave cell gain with vemurafenib 0.94; lactate per cell with vemurafenib 0.77; inactive.
After knock-down of CEP89 (GeneID 84902), the screen gave cell gain with vemurafenib 0.27; lactate per cell with vemurafenib 1.93; inactive.
With knock-down of RRP8 (GeneID 23378) the results were cell gain with vemurafenib 0.23; lactate per cell with vemurafenib -0.06; active.
Against CDKL1 (GeneID 8814) the deposit lists cell gain with vemurafenib 0.48; lactate per cell with vemurafenib 0.47; inactive.
For CBX7 (GeneID 23492) the deposit lists cell gain with vemurafenib 1.61; lactate per cell with vemurafenib 0.51; inactive.
OSBPL11 (GeneID 114885) gave cell gain with vemurafenib 0.62; lactate per cell with vemurafenib 0.56; inactive.
Against TMEM89 (GeneID 440955), the values are cell gain with vemurafenib 0.02; lactate per cell with vemurafenib 0.73; inactive.
With knock-down of ADAM21 (GeneID 8747), the record shows cell gain with vemurafenib 0.09; lactate per cell with vemurafenib 1.17; inactive.
Against RBP1 (GeneID 5947), the entry reads cell gain with vemurafenib 0.12; lactate per cell with vemurafenib 1.25; inactive.
Silencing of GSK3A (GeneID 2931) gave: cell gain with vemurafenib 0.61; lactate per cell with vemurafenib 0.68; inactive.
SCGB3A1 (GeneID 92304) showed cell gain with vemurafenib 0.87; lactate per cell with vemurafenib 0.84; inactive.
Knock-down of ADAMTS5 (GeneID 11096) came out at: cell gain with vemurafenib 0.65; lactate per cell with vemurafenib 0.88; inactive.
After knock-down of ANXA3 (GeneID 306) the results were cell gain with vemurafenib 1.11; lactate per cell with vemurafenib 1; inactive.

2 entries from above, set out differently:
gene	cell gain with vemurafenib	lactate per cell with vemurafenib	activity call
PSMD12 (GeneID 5718)	-0.04	2.67	inactive
LMCD1 (GeneID 29995)	0.72	0.48	inactive
